Reference: paper PMC3764826, “Bpur, the Lyme Disease Spirochete's PUR Domain Protein”
For at least one entry, the source does not settle the construct or the ends of the probe. Protein sequences can lack the tags named with them.

Molecular target: T1, Bpur (Borrelia burgdorferi B31) (UniProt O51076)
T1 sequence (looked up): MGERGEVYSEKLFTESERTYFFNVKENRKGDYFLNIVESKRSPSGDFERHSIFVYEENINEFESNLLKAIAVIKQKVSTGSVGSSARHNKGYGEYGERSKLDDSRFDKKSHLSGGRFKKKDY
Experiment: EMSA
Conditions: EMSA: 50 mM Tris pH 7.5, 25 mM KCl, 1 mM MgCl2, 100 nM DTT, 10% glycerol, 0.01% Tween 20, 0.1% PMSF, temperature not stated, RNA/ssDNA probes preheated at 56 C, recombinant protein, residues 1-122

Question: With “AATGGAGAGATTTTGGGGAGTTGTTTAAAATTACATTTGCGTTTTGTTAAAATG [Bio-sense-ssDNA]” as the sequence, how does the Kd (label: 5' biotin, single-stranded DNA) read?
Answer: Its Kd is 393 nM.

Question: For “AATGGAGAGATTTTGGGGAGTTGTTTAAAATTACATTTGCGTTTTGTTAAAATG (double strand) [Bio-dsDNA]”, which Kd (label: 5' biotin (one strand)) is on record?
Answer: Its Kd is 127 nM.
